Earlier results in patent US20190382462A1, “METHODS AND COMPOSITIONS FOR TREATING HPA HYPERACTIVITY” (priority 2017, published 2019).
The name of at least one read-out is uncertain.

Details: in vivo

darbepoetin alfa
half-life relative to the unmodified parent protein (in words): threefold longer
